Data reported in paper PMC12385072.

Amino acid sequences for entries named in this document (tags omitted). Residues count along the entry.
UniProt P63079, residues 26-473: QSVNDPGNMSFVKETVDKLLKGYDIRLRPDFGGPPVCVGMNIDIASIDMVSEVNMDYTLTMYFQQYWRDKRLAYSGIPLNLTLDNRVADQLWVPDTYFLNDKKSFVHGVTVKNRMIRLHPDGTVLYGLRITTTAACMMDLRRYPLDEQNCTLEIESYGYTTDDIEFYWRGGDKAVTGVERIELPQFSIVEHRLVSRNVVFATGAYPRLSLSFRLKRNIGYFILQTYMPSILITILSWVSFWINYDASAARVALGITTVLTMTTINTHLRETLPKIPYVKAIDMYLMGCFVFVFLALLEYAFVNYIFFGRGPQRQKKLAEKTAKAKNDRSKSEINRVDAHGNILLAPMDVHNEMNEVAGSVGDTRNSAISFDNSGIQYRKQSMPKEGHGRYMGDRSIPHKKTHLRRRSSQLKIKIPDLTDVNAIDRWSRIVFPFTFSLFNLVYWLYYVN
UniProt Q8CFN2: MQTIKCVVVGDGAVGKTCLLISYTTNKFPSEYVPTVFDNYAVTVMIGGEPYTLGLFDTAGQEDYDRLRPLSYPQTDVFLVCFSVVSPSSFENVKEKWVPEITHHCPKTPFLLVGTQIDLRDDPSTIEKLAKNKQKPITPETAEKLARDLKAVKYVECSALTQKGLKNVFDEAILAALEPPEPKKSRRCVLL
UniProt P63138, residues 26-474: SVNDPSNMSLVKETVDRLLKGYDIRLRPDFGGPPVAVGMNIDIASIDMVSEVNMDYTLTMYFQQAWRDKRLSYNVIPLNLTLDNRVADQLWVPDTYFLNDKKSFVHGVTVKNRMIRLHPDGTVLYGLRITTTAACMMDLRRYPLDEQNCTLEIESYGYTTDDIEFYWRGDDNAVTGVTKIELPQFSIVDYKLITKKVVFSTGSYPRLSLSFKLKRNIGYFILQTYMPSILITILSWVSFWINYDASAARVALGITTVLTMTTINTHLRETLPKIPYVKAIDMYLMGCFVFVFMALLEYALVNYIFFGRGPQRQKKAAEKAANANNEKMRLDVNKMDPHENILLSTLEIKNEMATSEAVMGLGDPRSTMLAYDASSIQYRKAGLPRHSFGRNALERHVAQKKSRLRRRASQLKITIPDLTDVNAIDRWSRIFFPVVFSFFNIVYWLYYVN
UniProt P62813, residues 28-455: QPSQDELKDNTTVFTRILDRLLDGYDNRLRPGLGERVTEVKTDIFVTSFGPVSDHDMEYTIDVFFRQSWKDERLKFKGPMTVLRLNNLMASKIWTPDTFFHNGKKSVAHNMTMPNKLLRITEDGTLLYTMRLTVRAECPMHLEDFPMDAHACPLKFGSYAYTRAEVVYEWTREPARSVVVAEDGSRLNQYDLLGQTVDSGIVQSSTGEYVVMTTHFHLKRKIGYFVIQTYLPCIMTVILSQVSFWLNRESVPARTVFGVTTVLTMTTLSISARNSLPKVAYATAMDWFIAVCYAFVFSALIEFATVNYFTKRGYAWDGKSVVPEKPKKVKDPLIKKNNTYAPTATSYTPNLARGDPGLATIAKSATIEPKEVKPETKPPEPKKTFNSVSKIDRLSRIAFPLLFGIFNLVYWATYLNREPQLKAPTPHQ

Target: T1, RIPSYR peptide (TARPγ2-derived, 225-RIPSYR-230)
T1 sequence (peptide): RIPSYR
Assay: affinity purification with mass spectrometry; RIPSYR covalently coupled (EDC/NHS) to carboxy magnetic beads, uncoupled (blank) beads as control; rat hippocampal synaptosome lysate (1% Triton X-100, 50 mM Tris Cl, 300 mM NaCl, pH 7.4) added, 2 h at 4 °C; eluted with 2% SDS; TMT-labelled LC-MS/MS, abundance ratio of RIPSYR-coupled bead to blank bead; only the target purified

| Molecule | binding |
| --- | --- |
| Gabrb3 (from UniProt P63079 26-473) (receptor) | binds |
| Cdc42 (from UniProt Q8CFN2 1-191) | binds |
| Gabrb2 (from UniProt P63138 26-474) (receptor) | binds |
| Gabra1 (GABA receptor subunit alpha 1) (from UniProt P62813 28-455) | binds |
| Basp1 (protein, UniProt Q05175 1-220) MGSKLSKKKKGYNVNDEKAKDKDKKAEGAGTEEEGTQKESEPQAAADATEVKESAEEKPKDAADGEAKAEEKEADKAAAKEEAPKAEPEKSEGAAEEQPEPAPAPEQEAAAPGPAAGGEAPKAGEASAESTGAADGAPQEEGEAKKTEAPAAGPEAKSDAAPAASDSKPSTEPAPSSKETPAASEAPSSAAKAPAPAAPAAEPQAEAPVASSEQSVAVKE | binds |
| Marcks (protein, UniProt P30009 1-309) MGAQFSKTAAKGEAAAERPGEAAVASSPSKANGQENGHVKVNGDASPAAAEPGAKEELQANGSAPAADKEEPASGGAATPAAADKDEAAAAPEPGAATADKEAAEAEPAEPGSPSAETEGASASSTSSPKAEDGAAPSPSSETPKKKKKRFSFKKSFKLSGFSFKKSKKEAGEGAEAEGATADGAKDEAAAAAGGDAAAAPGEQAGGAGAEGAEGGESREAEAAEPEQPEQPEQPAAEEPRAEEPSEAVGEKAEEPAPGATADDAPSAAGPEQEAPAATDEPAASAAPSASPEPQPECSPEAPPAPVAE | binds |

Results are given in words; binding and its absence hold for the method and conditions named. In cells and extracts the contact can be indirect. These calls come from enrichment with a bait or labelling near it, and not all partners need be listed.
